Results from patent publication US9725423B2, “Tetrazolinone compound and applications thereof” (SUMITOMO CHEMICAL COMPANY, LIMITED, priority 2012, dated 2017).
Some entries share one result that the patent states for a list of compounds.

What was measured:
Type in all cases: in vivo
[1] = test system: cucumber powdery mildew fungus (Sphaerotheca fuliginea); assay: Cucumber powdery mildew control test, foliar spray on cucumber (Test Examples 6, 12, Comparative Test Example); details: 500 ppm, cucumber (SAGAMI HANJIRO), 8 days after inoculation
[2] = test system: kidney bean stem rot fungus (Sclerotinia sclerotiorum); assay: Kidney bean stem rot control test, foliar spray on kidney bean (Test Examples 4, 10); details: kidney bean (NAGAUZURA INGEN), four days after inoculation
[3] = test system: barley net blotch fungus (Pyrenophora teres); assay: Barley net blotch control test, foliar spray on barley (Test Examples 3, 9); details: 500 ppm, barley (MIKAMO GOLDEN), inoculated two days after spraying
[4] = test system: wheat leaf blotch fungus (Septoria tritici); assay: Wheat leaf blotch control test, foliar spray on wheat (Test Examples 5, 11); details: wheat (APOGEE), inoculated four days after spraying
[5] = test system: barley scald fungus (Rhynchosporium secalis); assay: Barley scald control test, foliar spray on barley (Test Example 14); details: 200 ppm, barley (MIKAMO GOLDEN), inoculated two days after spraying

Measured: area of lesion spots relative to that on an untreated plant

COc1cccc(-n2nnn(C)c2=O)c1CON=C(C)c1cc(C)cc(C)c1 [present compound 48, 1-{3-methoxy-2-[1-(3,5-dimethylphenyl)ethylideneaminooxymethyl]phenyl}-4-methyl-1,4-dihydrotetrazol-5-one]
≤ 30%: [1] | [2]; 500 ppm | [3] | [4]; 500 ppm | [5]

COc1cccc(-n2nnn(C)c2=O)c1CON=C(C)c1cc(Cl)cc(Cl)c1 [present compound 49, 1-{3-methoxy-2-[1-(3,5-dichlorophenyl)ethylideneaminooxymethyl]phenyl}-4-methyl-1,4-dihydrotetrazol-5-one]
≤ 30%: [1] | [2]; 500 ppm | [3] | [4]; 500 ppm | [5]

CC(=NOCc1c(C2CC2)cccc1-n1nnn(C)c1=O)c1cccc(Cl)c1 [present compound 53, 1-{3-cyclopropyl-2-[1-(3-chlorophenyl)ethylideneaminooxymethyl]phenyl}-4-methyl-1,4-dihydrotetrazol-5-one]
≤ 30%: [1] | [2]; 500 ppm | [3] | [4]; 500 ppm | [5]

CC(=NOCc1c(C2CC2)cccc1-n1nnn(C)c1=O)c1cccc(OC(F)(F)F)c1 [present compound 54, 1-{3-cyclopropyl-2-[1-(3-trifluoromethoxyphenyl)ethylideneaminooxymethyl]phenyl}-4-methyl-1,4-dihydrotetrazol-5-one]
≤ 30%: [1] | [2]; 500 ppm | [3] | [4]; 500 ppm | [5]

CC(=NOCc1c(C2CC2)cccc1-n1nnn(C)c1=O)c1cccc(OC(F)(F)C(F)F)c1 [present compound 55, 1-(3-cyclopropyl-2-{1-[3-(1,1,2,2-tetrafluoroethoxyl)phenyl]ethylideneaminooxymethyl}phenyl)-4-methyl-1,4-dihydrotetrazol-5-one]
≤ 30%: [1] | [2]; 500 ppm | [3] | [4]; 500 ppm | [5]

COc1cccc(C(C)=NOCc2c(C3CC3)cccc2-n2nnn(C)c2=O)c1 [present compound 56, 1-{3-cyclopropyl-2-[1-(3-methoxyphenyl)ethylideneaminooxymethyl]phenyl}-4-methyl-1,4-dihydrotetrazol-5-one]
≤ 30%: [1] | [2]; 500 ppm | [3] | [4]; 500 ppm | [5]

CC(=NOCc1c(C2CC2)cccc1-n1nnn(C)c1=O)c1ccc2c(c1)CCC2 [present compound 58, 1-{3-cyclopropyl-2-[1-(indan-5-yl)ethylideneaminooxymethyl]phenyl}-4-methyl-1,4-dihydrotetrazol-5-one]
≤ 30%: [1] | [2]; 500 ppm | [3] | [4]; 500 ppm | [5]

CC(=NOCc1c(C2CC2)cccc1-n1nnn(C)c1=O)c1cc(Cl)cc(Cl)c1 [present compound 61, 1-{3-cyclopropyl-2-[1-(3,5-dichlorophenyl)ethylideneaminooxymethyl]phenyl}-4-methyl-1,4-dihydrotetrazol-5-one]
≤ 30%: [1] | [2]; 500 ppm | [3] | [4]; 500 ppm | [5]

CC(=NOCc1c(C)cccc1-n1nnn(C)c1=O)c1ccc(F)c(Br)c1 [present compound 65, 1-{3-methyl-2-[1-(3-bromo-4-fluorophenyl)ethylideneaminooxymethyl]phenyl}-4-methyl-1,4-dihydrotetrazol-5-one]
≤ 30%: [1] | [2]; 500 ppm | [3] | [4]; 200 ppm | [4]; 500 ppm | [5]

CC(=NOCc1c(C)cccc1-n1nnn(C)c1=O)c1ccc(Cl)c(Cl)c1 [present compound 66, 1-{3-methyl-2-[1-(3,4dichlorophenyl)ethylideneaminooxymethyl]phenyl}-4-methyl-1,4-dihydrotetrazol-5-one]
≤ 30%: [1] | [2]; 200 ppm | [3] | [4]; 200 ppm | [5]

CCOc1cccc(-n2nnn(C)c2=O)c1CON=C(C)c1cccc(C(F)(F)F)c1 [present compound 68, 1-{3-ethoxy-2-[1-(3-trifluoromethylphenyl)ethylideneaminooxymethyl]phenyl}-4-methyl-1,4-dihydrotetrazol-5-one]
≤ 30%: [1] | [2]; 500 ppm | [3] | [4]; 500 ppm | [5]

CC(=NOCc1c(C)cccc1-n1nnn(C)c1=O)c1ccc2c(c1)CCCC2 [present compound 69, 1-{3-methyl-2-[1-(5,6,7,8-tetrahydronaphthalen-2-yl)ethylideneaminooxymethyl]phenyl}-4-methyl-1,4-dihydrotetrazol-5-one]
≤ 30%: [1] | [2]; 500 ppm | [3] | [4]; 500 ppm | [5]

Cc1cccc(-n2nnn(C)c2=O)c1CON=C(c1cccc(C(F)(F)F)c1)C1CC1 [present compound 70, 1-{2-[cyclopropyl(3-trifluoromethylphenyl)methylideneaminooxymethyl]-3-methylphenyl}-4-methyl-1,4-dihydrotetrazol-5-one]
≤ 30%: [1] | [2]; 500 ppm | [3] | [4]; 500 ppm | [5]

CC(=NOCc1c(C)cccc1-n1nnn(C)c1=O)c1cccc(C)c1 [present compound 71, 1-{3-methyl-2-[1-(3-methylphenyl)ethylideneaminooxymethyl]phenyl}-4-methyl-1,4-dihydrotetrazol-5-one]
≤ 30%: [1] | [2]; 500 ppm | [3] | [4]; 500 ppm | [5]

CCCCCCOc1cccc(C(C)=NOCc2c(C)cccc2-n2nnn(C)c2=O)c1 [present compound 72, 1-{3-methyl-2-[1-(3-hexyloxyphenyl)ethylideneaminooxymethyl]phenyl}-4-methyl-1,4-dihydrotetrazol-5-one]
≤ 30%: [1] | [2]; 200 ppm | [3] | [4]; 500 ppm | [5]

CC(=NOCc1c(C)cccc1-n1nnn(C)c1=O)c1cccc(OC(C)C)c1 [present compound 76, 1-{3-methyl-2-[1-(3-isopropoxyphenyl)ethylideneiminooxymethyl]phenyl}-4-methyl-1,4-dihydrotetrazol-5-one]
≤ 30%: [1] | [2]; 500 ppm | [3] | [4]; 200 ppm | [5]

CC(=NOCc1c(C)cccc1-n1nnn(C)c1=O)c1cccc(I)c1 [present compound 78, 1-{3-methyl-2-[1-(3-iodophenyl)ethylideneaminooxymethyl]phenyl}-4-methyl-1,4-dihydrotetrazol-5-one]
≤ 30%: [1] | [2]; 500 ppm | [3] | [4]; 500 ppm | [5]

CC(=NOCc1c(C)cccc1-n1nnn(C)c1=O)c1cccc(Br)c1 [present compound 79, 1-{3-methyl-2-[1-(3-bromophenyl)ethylideneaminooxymethyl]phenyl}-4-methyl-1,4-dihydrotetrazol-5-one]
≤ 30%: [1] | [2]; 500 ppm | [3] | [4]; 500 ppm | [5]
